This passage reports binding results from publication doi:10.1101/2024.02.14.580382.

Assay in all cases: pull-down
Experiment [1] has as its target T1, GFP-DFCP1 (Double FYVE Domain Containing Protein 1), wild type (UniProt Q9HBF4).
T1 sequence: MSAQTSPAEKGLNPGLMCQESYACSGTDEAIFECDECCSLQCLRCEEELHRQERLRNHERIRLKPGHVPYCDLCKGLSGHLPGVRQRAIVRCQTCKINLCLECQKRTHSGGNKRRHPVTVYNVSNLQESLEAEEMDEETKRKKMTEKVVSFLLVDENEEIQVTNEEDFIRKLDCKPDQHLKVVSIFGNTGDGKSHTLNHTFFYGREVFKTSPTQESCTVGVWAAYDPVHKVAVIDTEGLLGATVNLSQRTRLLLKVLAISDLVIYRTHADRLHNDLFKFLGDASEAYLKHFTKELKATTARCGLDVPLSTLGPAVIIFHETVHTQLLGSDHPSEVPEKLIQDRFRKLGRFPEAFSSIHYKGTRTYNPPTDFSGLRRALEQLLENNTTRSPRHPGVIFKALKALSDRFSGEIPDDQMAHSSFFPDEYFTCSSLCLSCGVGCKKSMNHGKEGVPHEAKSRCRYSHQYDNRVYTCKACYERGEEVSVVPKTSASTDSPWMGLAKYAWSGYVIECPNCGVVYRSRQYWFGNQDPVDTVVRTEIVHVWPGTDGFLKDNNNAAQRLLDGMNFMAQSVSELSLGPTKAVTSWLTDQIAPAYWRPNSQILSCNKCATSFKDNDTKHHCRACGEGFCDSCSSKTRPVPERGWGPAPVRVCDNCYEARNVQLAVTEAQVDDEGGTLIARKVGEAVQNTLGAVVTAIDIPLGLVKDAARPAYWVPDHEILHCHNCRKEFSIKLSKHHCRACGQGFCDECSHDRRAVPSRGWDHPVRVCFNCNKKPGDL

Experiment [2] concerns the target T2, GFP-DFCP1^RQ (R266Q, NTPase domain mutant) (UniProt Q9HBF4).
T2 sequence: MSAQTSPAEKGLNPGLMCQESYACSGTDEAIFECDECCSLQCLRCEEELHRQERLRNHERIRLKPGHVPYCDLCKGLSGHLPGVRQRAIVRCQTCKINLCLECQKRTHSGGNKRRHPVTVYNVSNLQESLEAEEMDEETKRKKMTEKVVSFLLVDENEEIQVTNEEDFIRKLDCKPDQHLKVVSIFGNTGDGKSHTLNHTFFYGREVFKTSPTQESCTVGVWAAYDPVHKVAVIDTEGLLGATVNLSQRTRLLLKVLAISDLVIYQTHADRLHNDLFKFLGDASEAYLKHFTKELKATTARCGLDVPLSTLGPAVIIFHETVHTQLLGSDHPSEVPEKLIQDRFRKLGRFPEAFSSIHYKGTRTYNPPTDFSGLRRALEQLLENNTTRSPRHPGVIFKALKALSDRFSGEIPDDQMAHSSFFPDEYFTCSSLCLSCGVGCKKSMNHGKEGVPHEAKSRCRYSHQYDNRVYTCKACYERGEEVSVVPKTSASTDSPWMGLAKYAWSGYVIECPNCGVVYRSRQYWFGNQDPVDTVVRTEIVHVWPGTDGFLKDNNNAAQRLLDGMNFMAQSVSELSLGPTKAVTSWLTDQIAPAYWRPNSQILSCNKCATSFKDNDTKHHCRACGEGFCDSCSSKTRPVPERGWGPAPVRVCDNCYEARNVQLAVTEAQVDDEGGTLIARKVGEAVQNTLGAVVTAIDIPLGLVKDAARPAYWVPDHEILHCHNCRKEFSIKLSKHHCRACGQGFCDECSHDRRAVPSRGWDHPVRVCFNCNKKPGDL

The target of experiment [3] is T3, GFP-DFCP1^KA (K193A, nucleotide-binding mutant of the NTPase domain) (UniProt Q9HBF4).
T3 sequence: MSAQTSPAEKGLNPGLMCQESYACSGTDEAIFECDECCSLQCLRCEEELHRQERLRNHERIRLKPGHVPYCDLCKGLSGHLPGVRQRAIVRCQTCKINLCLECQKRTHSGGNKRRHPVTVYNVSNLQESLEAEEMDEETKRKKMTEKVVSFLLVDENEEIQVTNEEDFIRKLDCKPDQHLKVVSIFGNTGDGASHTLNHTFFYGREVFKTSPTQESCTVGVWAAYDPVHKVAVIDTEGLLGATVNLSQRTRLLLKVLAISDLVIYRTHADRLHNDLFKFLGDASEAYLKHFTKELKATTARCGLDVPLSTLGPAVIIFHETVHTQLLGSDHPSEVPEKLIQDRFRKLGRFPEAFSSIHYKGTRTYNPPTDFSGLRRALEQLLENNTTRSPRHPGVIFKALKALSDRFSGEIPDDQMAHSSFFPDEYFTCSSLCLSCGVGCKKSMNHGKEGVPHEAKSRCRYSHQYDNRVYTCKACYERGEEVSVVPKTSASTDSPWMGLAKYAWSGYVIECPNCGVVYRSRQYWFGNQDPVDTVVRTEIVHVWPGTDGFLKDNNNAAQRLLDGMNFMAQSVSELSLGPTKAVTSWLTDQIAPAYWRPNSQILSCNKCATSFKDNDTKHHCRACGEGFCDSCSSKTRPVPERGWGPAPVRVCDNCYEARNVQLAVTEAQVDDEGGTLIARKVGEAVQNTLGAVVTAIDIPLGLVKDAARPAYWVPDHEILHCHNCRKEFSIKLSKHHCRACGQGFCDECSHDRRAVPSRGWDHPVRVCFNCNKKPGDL

Experiment [4] addresses T4, GFP-DFCP1^1-415 (N-terminal 415 residues, include the NTPase domain) (UniProt Q9HBF4).
T4 sequence: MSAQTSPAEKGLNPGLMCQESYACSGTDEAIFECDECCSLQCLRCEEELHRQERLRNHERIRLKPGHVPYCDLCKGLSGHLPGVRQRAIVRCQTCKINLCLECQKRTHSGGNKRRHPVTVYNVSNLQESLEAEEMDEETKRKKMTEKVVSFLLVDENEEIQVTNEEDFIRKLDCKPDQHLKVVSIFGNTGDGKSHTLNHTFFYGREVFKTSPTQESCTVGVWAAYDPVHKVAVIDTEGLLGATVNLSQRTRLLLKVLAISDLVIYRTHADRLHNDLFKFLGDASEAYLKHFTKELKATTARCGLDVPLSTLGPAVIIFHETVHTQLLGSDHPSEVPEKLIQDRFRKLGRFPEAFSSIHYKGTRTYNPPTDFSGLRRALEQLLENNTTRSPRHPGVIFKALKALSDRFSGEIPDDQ

Experiment [5] deals with T5, GFP-DFCP1^415-777 (contains the C-terminal FYVE domains) (UniProt Q9HBF4).
T5 sequence: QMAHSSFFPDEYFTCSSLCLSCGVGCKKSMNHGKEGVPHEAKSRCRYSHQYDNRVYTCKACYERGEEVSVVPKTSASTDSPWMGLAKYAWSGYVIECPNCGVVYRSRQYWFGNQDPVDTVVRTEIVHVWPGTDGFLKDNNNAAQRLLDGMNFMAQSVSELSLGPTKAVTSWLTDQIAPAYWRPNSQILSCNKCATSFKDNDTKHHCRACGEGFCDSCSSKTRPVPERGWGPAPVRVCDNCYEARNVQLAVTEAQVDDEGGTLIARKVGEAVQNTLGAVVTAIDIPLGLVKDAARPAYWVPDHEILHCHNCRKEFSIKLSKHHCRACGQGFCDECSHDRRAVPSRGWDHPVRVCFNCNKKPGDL

Experiment [6] concerns the target T6, DFCP1^554-777 (contains the C-terminal FYVE domains) (UniProt Q9HBF4).
T6 sequence: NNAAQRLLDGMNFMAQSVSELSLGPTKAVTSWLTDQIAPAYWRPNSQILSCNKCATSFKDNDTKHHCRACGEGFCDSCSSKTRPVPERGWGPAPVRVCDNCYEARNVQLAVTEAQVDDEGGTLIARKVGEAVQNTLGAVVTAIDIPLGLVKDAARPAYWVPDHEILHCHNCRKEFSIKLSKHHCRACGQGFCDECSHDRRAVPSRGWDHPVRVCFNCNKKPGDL

No constants are given. Whether binding was seen depends on the method and setting. Binding seen in cells or lysates may run through a third protein. Some entries that bind do so weakly or less than the wild type. Sequences can lack the tags named with a protein.

B1: FLAG-ATGL (human Adipose Triglyceride Lipase, full length) (enzyme, UniProt Q96AD5 1-504)
chain: MFPREKTWNISFAGCGFLGVYYVGVASCLREHAPFLVANATHIYGASAGALTATALVTGVCLGEAGAKFIEVSKEARKRFLGPLHPSFNLVKIIRSFLLKVLPADSHEHASGRLGISLTRVSDGENVIISHFNSKDELIQANVCSGFIPVYCGLIPPSLQGVRYVDGGISDNLPLYELKNTITVSPFSGESDICPQDSSTNIHELRVTNTSIQFNLRNLYRLSKALFPPEPLVLREMCKQGYRDGLRFLQRNGLLNRPNPLLALPPARPHGPEDKDQAVESAQAEDYSQLPGEDHILEHLPARLNEALLEACVEPTDLLTTLSNMLPVRLATAMMVPYTLPLESALSFTIRLLEWLPDVPEDIRWMKEQTGSICQYLVMRAKRKLGRHLPSRLPEQVELRRVQSLPSVPLSCAAYREALPGWMRNNLSLGDALAKWEECQRQLLLGLFCTNVAFPPEALRMRAPADPAPAPADPASPQHQLAGPAPLLSTPAPEARPVIGALGL
B1: the binding result in experiment [1] was “binds”.

B2: MBP-ATGL (1-254), N-terminal truncation of human ATGL with the patatin-like lipase domain (domain or fragment, UniProt Q96AD5 1-254)
chain: MFPREKTWNISFAGCGFLGVYYVGVASCLREHAPFLVANATHIYGASAGALTATALVTGVCLGEAGAKFIEVSKEARKRFLGPLHPSFNLVKIIRSFLLKVLPADSHEHASGRLGISLTRVSDGENVIISHFNSKDELIQANVCSGFIPVYCGLIPPSLQGVRYVDGGISDNLPLYELKNTITVSPFSGESDICPQDSSTNIHELRVTNTSIQFNLRNLYRLSKALFPPEPLVLREMCKQGYRDGLRFLQRNGL
Regarding B2, the binding entry in experiment [2] was “binds”; in experiment [1] it was “binds”; in experiment [3] it was “binds”; in experiment [4] it was “no binding”; in experiment [5], “binds”; in experiment [6], “binds”.
